Assay results published in PubChem BioAssay AID540256 (National Center for Advancing Translational Sciences (NCATS), 2011).
About 3,700 (1.2%) of roughly 300,000 compounds were called active. The shares of active, inactive and inconclusive entries below differ from those in the screen. The call rests on the fitted dose curve; tested in HEK293 cells. Where the call is inconclusive, the potency comes from a doubtful curve fit.

Experiment: qHTS for Inhibitors of binding or entry into cells for Lassa Virus; further: nearly all actives have a fitted effect of over 50% in size
Conditions: Lassa virus pseudotype entry inhibition, cell reporter; activity change, negative = inhibition: at 37.9 µM (top of the series) unless noted
On the % scale 0 is the no-effect control and ±100 the full control effect; potency means the concentration at half of the fitted maximal effect.

Structure (SMILES)	activity change, negative = inhibition	Potency
CCn1cc(C(=O)N2CCN(c3cccc(Cl)c3)CC2)c(=O)c2cc(S(=O)(=O)N3CCC(C)CC3)ccc21	inactive: -28% [at 46.1 µM]	
O=C(Cc1ccc(Cl)cc1)NCCCn1ccnc1	inactive: 2.07%	
Cc1ccc2c(=O)cc(CSc3ncn[nH]3)[nH]c2c1C	inactive: 23.7% [at 46.1 µM]	
Cc1cccc(C)c1OCC(=O)N(Cc1ccco1)Cc1ccco1		inconclusive: 28.2 µM [inhibitor, single point]
CC(=O)Nc1ccc(S(=O)(=O)Nc2ncccn2)cc1		inconclusive: 29.1 µM [activator, single point]
Cc1ccc(NC(=O)CSc2nc(N)cc(N)n2)cc1S(=O)(=O)N1CCOCC1		inconclusive: 14.1 µM [inhibitor, single point]
CCCc1nnc(SCC(=O)Nc2nccs2)o1		inconclusive: 35.5 µM [activator, single point]
C=Cc1ccc(Cn2c(C)c(CNCCc3ccc(OCC)cc3)c(C(=O)O)c2C)cc1	inactive: -4.6% [at 46.1 µM]	
COc1cccc(CNC(=O)Cn2nc(C)c3sc4ccccc4c3c2=O)c1OC	inactive: 1.55% [at 46.1 µM]	
COc1ccc(C(C(=O)NC2CCCCC2)N(C(=O)c2sc(C)nc2C)c2ccc(C(C)=O)cc2)cc1 (configuration not stated)		inconclusive: 23.1 µM [inhibitor, partial curve, poor fit]
O=C(Oc1c(Cl)cc(Cl)c2cccnc12)c1cccs1		inconclusive: 23.1 µM [inhibitor, partial curve]
O=C(NCCCN1CCN(c2cccc(Cl)c2)CC1)c1ccc2nc(Cc3ccccc3)oc2c1		inconclusive: 35.5 µM [inhibitor, single point]
Cc1nc2cc(C(=O)OCC(=O)N(CC(C)C)C3CCS(=O)(=O)C3)ccc2n1-c1ccccc1 (configuration not stated)	inactive: -3.05%	
CCN(CC)S(=O)(=O)c1ccc2c(c1)c(=O)c(C(=O)NCCN(C)CCc1ccccc1)cn2C		inconclusive: 1.64 µM [activator, partial curve, poor fit]
NC(=O)c1ccccc1N/C=C/C(=O)c1ccccc1	inactive: -1.82%	
COCOCCn1cc(CN2CCS(=O)(=O)N(Cc3ccc(-c4ccc(F)nc4)cc3)C(C(C)C)C2=O)nn1 (configuration not stated)		inconclusive: 12.5 µM [activator, single point]
Cc1nn2c(C)c(C(=O)N3CCN(c4ccc(Cl)cc4)CC3)cnc2c1-c1ccc(F)cc1	inactive: 10.8% [at 46.1 µM]	
COC(=O)C1=C(C)NC(=S)NC1c1ccc(-c2cc(Cl)ccc2Cl)o1 (configuration not stated)		inconclusive: 0.891 µM [inhibitor, partial curve, poor fit]
Cc1ccc(C(CNS(=O)(=O)c2ccc([N+](=O)[O-])cc2)N2CCN(C)CC2)cc1 (configuration not stated)		inconclusive: 35.5 µM [inhibitor, single point]
CCOC(=O)C1CCN(c2c(N3CCCCCC3)c(=O)c2=O)CC1	inactive: 1.94%	
Cc1ccc2cc(/C=C(\C#N)C(N)=O)c(N3CCCCC3)nc2c1	inactive: 9.82%	
CCc1nc2ccccc2c(NC(=O)CN2CCC(C)CC2)c1C	inactive: -14%	
COc1cccc2c1OC1(C)CC2N(C(=O)c2ccco2)C(=S)N1c1ccc(F)cc1 (configuration not stated)		inconclusive: 16.4 µM [inhibitor, single point]

Structure (SMILES)	activity change, negative = inhibition	Potency
Cc1ccccc1-n1nnnc1SCc1csc(-c2ccccc2)n1		active: 13 µM
CCOC(=O)NC(=O)CSc1nc2ccccc2[nH]1	inactive: -0.672% [at 46.1 µM]	
Cc1ccc(S(=O)(=O)N(C)c2ccc(OCC(=O)Nc3ccc(S(C)(=O)=O)cc3)cc2)cc1		inconclusive: 35.5 µM [inhibitor, single point]
COc1ccc(CCNc2oc(Cc3cccc4ccccc34)nc2C#N)cc1OC		inconclusive: 20 µM [inhibitor, single point]
Cc1ccc(N2C(=O)CSC23C(=O)N(CC(=O)NCc2ccccc2)c2ccccc23)cc1 (configuration not stated)	inactive: -11.9% [at 46.1 µM]	
Cc1ccc(NC(=O)C2CCCN(S(=O)(=O)c3cccs3)C2)cc1 (configuration not stated)		inconclusive: 2.51 µM [inhibitor, full curve, poor fit]
Cc1nc(N2CCN(c3ccccn3)CC2)c2c(C)c(C(=O)N3CCN(c4ccccc4F)CC3)sc2n1		inconclusive: 25.1 µM [inhibitor, partial curve, poor fit]
O=C(Nc1ccccc1)Nc1nnc(SCC(=O)N2CCCCC2)s1		inconclusive: 10 µM [inhibitor, partial curve]
COC(=O)c1ccc(CN2C(=O)NC3(CCC(C)CC3)C2=O)o1 (configuration not stated)	inactive: 1.14%	
CC(C)Cn1nc(-c2ccccc2)c2ccccc2c1=O		inconclusive: 5.01 µM [activator, partial curve]
NC(=S)N/N=C/c1ccc(-c2ccc(SC(F)F)cc2)o1		inconclusive: 4.47 µM [inhibitor, full curve, poor fit]
CN(CCOc1ccccc1)Cc1nc2cc(Cl)ccc2c(=O)[nH]1		inconclusive: 4.47 µM [activator, full curve]
O=C(N=C1SC2CS(=O)(=O)CC2N1c1ccc(F)cc1)C1CCCCC1 (configuration not stated)		inconclusive: 11.2 µM [activator, partial curve, poor fit]
CCCCNC(=O)c1ccc2c(c1)N=C(CC)c1ccccc1S2		inconclusive: 20 µM [inhibitor, partial curve, poor fit]
CSc1ccc(/C=C(\NC(=O)c2ccccc2)C(=O)NN)cc1		inconclusive: 10 µM [inhibitor, partial curve, poor fit]
NC1=NC2(CCCCC2)N(c2ccc(F)cc2)C(N)=N1		inconclusive: 17.8 µM [activator, single point]
O=C1CC2(CCCC2)C(=O)N1c1ccc(S(=O)(=O)NCC2CC2)cc1Cl		inconclusive: 2.82 µM [inhibitor, single point]
Cc1cccc(C(=O)OCC(=O)NC2CC2)c1O		inconclusive: 14.1 µM [activator, single point]
COC(=O)CCN(c1ccccc1)C(CNS(=O)(=O)c1ccccc1)c1ccccc1 (configuration not stated)		inconclusive: 22.4 µM [inhibitor, single point]
Cc1ccc(C(C)C)cc1OCC(=O)N1CCN(C(=O)c2ccco2)CC1		inconclusive: 35.5 µM [inhibitor, partial curve, poor fit]
COc1cc(C(=O)C(=O)c2cc(OC)c(O)c(OC)c2)cc(OC)c1O		inconclusive: 35.5 µM [activator, single point]
CCNS(=O)(=O)c1ccc(CCC(=O)N2CCN(c3ccccc3F)CC2)cc1	inactive: -20.5%	
Cc1ccccc1OCC(O)CN1CCN(CCN2C(=O)c3cccc4cccc(c34)C2=O)CC1 (configuration not stated)		inconclusive: 29.1 µM [inhibitor, single point]

Structure (SMILES)	activity change, negative = inhibition	Potency
CNc1nnc(Sc2ncccc2[N+](=O)[O-])s1		inconclusive: 2 µM [inhibitor, partial curve, poor fit]
COc1ccc(C)cc1NC(=O)CCCN1C(=S)NC(C)(C)CC1C (configuration not stated)		inconclusive: 1.12 µM [inhibitor, partial curve]
Cc1cc(Oc2ccc(Cl)cc2)nc(-c2ccccn2)n1		inconclusive: 35.5 µM [inhibitor, single point]
O=C(/C=C/c1cccs1)NC(=S)NNC(=O)c1ccccc1O		inconclusive: 1.26 µM [inhibitor, full curve, poor fit]
O=C(CSc1nc2c([nH]c3ccccc32)c(=O)n1-c1ccccc1F)Nc1cccc(C(F)(F)F)c1		inconclusive: 35.5 µM [inhibitor, single point]
CCOc1ccc(S(=O)(=O)N2CCN(Cc3nc4ccc(C)cc4o3)CC2)cc1	inactive: -17.2% [at 46.1 µM]	
O=C1C(=O)N(C2CCN(C(=O)c3cccc(Cl)c3)CC2)CCN1Cc1ccc(F)cc1	inactive: 28.4% [at 46.1 µM]	
COc1ccc(Cl)cc1N(C)C(=O)CCc1nc(-c2ccc(C)cc2)no1	inactive: -19.4%	
Cc1ccc(C(=O)Nc2cccc3[nH]c(C(F)(F)F)nc23)cc1		inconclusive: 11.2 µM [inhibitor, single point]
CCCCc1ccc(NC(=O)CSc2nc(=O)[nH]c3c2CCCC3)cc1		inconclusive: 31.6 µM [activator, single point]
COc1ccc(S(=O)(=O)Nc2cc3c4c(oc3c3ccccc23)CCCC4=O)cc1		active: 7.08 µM
COc1cccc(Cn2c(=O)oc3ccccc32)c1		inconclusive: 11.2 µM [activator, partial curve, poor fit]
CC(C)(O)C#Cc1ccc(CN2CCN(Cc3ccccc3)C(CCO)C2)cc1 (configuration not stated)		inconclusive: 28.2 µM [inhibitor, partial curve, poor fit]
CC(=O)C(C(C)=O)c1cc(NS(=O)(=O)c2ccccc2)ccc1NS(=O)(=O)c1ccccc1		inconclusive: 8.91 µM [inhibitor, single point]
Cc1ccccc1Nc1nc(N)c(C(=O)c2ccccc2Cl)s1	inactive: 11.1% [at 46.1 µM]	
CN1C(=O)NC(c2ccc(O)cc2)C2=C1CN(c1ccc(O)cc1)C2=O (configuration not stated)		inconclusive: 25.1 µM [inhibitor, partial curve, poor fit]
Cc1cc(O)c(C(C)C)cc1NC(=O)Nc1cccc2ccccc12		inconclusive: 35.5 µM [inhibitor, partial curve, poor fit]
CN(c1cccc(NC(=O)Nc2cccc(Cl)c2)c1)S(C)(=O)=O		inconclusive: 35.5 µM [inhibitor, single point]
CCC(c1nnnn1Cc1ccco1)N(CCN1CCOCC1)Cc1cc2cc(C)ccc2[nH]c1=O (configuration not stated)	inactive: -14.9%	
COc1cc(/C=C2/C(=N)N3C(SC)=NSC3=NC2=O)ccc1OC(=O)c1ccco1		inconclusive: 12.6 µM [activator, partial curve, poor fit]
CC1(C)CCCC(C)(C)N1CC(O)COCCOc1ccc(Br)cc1 (configuration not stated)		inconclusive: 10 µM [inhibitor, partial curve, poor fit]

A few values from the list:
For Potency, CN1C(=O)NC(c2ccc(O)cc2)C2=C1CN(c1ccc(O)cc1)C2=O (configuration not stated) has inconclusive: 25.1 µM [inhibitor, partial curve, poor fit]
For Potency, CC1(C)CCCC(C)(C)N1CC(O)COCCOc1ccc(Br)cc1 (configuration not stated) has inconclusive: 10 µM [inhibitor, partial curve, poor fit]

2 compounds drawn at random from those above, as already listed:
Structure (SMILES)	activity change, negative = inhibition	Potency
CC(=O)C(C(C)=O)c1cc(NS(=O)(=O)c2ccccc2)ccc1NS(=O)(=O)c1ccccc1		inconclusive: 8.91 µM [inhibitor, single point]
CCCCc1ccc(NC(=O)CSc2nc(=O)[nH]c3c2CCCC3)cc1		inconclusive: 31.6 µM [activator, single point]
